Assay results reported in US20100104554A1.
Results are given in words; binding and its absence hold for the method and conditions named. Some entries that bind do so weakly or less than the wild type. Tags and fused reporters may be left off the sequences shown.

Chains of the proteins cited; added tags and fusions are not shown. Lines headed by an entry give the natural chain unless they say otherwise; changes in a name come on top.
UniProt P25774: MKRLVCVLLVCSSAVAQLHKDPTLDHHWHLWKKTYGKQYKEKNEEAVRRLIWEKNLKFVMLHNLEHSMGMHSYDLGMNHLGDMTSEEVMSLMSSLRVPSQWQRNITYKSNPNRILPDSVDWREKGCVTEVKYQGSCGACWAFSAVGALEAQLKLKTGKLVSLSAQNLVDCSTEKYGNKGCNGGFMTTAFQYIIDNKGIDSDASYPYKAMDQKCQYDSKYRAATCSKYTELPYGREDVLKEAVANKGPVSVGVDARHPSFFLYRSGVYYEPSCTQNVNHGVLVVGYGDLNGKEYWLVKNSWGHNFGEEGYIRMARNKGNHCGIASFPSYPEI

Biological target: human cathepsin S (Calbiochem) (human) (UniProt P25774)
Assay: fluorometric enzyme inhibition assay with Cbz-Val-Val-Arg-AMC, progress curves

- binding: binds
B1: recombinant human cathepsin S propeptide (residues 17-113) with N-terminal hexahistidine tag, expressed from pQE30 (peptide)
chain: MRGSHHHHHHGSQLHKDPTLDHHWHLWKKTYGKQYKEKNEEAVRRLIWEKNLKFVMLHNLEHSMGMHSYDLGMNHLGDMTSEEVMSLTSSLRVPSQWQRNITYKSNPNRVDLQPSLIS
